Data from PubChem BioAssay AID248 (DTP/NCI, 2004).
The list shows only some results of the screen, not a fair sample: it is rich in T/C values a quarter to a half above the control, in often repeated tests (any T/C) and in doses without a T/C. Further doses and runs are listed elsewhere. T/C is the treated group as % of the vehicle group. Some entries give survivors of the animals treated and no T/C: the source files T/C as zero there, which appears to mark a toxic dose or a test without result, not a measured value. Some survivor counts are full or nearly so, which does not show that the dose was tolerated: the source hardly ever lists a survival T/C far under the control, and the zero likely stands for such cases as well. Survivors were counted at the toxicity check, usually on the fifth day, unless a day is given; later deaths do not show. Schedule codes are those of the source, taken here to give the interval after Q, in days (D) or hours (H), and the number of doses after X. For survival time, this PubChem deposit counts one and a half times the control or more as active, and values a quarter to a half above the control carry no call in these data; other NCI protocols may use other cut-offs. Some T/C values carry the count of animals alive at the toxicity check (mostly the fifth day); where none is given, no animal had died by that day. Some doses were run more than once; the values are given in rising order. Brackets with × say how often a value occurs here. Some schedules carry Z or #; the key to these is not given.

Test system: L1210 leukemia ip in BDF1 mice, survival T/C
Test: NCI In Vivo Anticancer Drug Screen. Data for tumor model L1210 Leukemia (intraperitoneal) in B6D2F1 (BDF1) mice
Conditions: T/C endpoint: mean survival time, higher T/C = longer survival

CC(CN1CC(=O)NC(=O)C1)N1CC(=O)NC(=O)C1 (stereo unspecified) was tested, and the T/C (dose: 6.25 mg/kg/injection, schedule: Q01DX009 (oral), vehicle: steroid suspending solution) was 125 % of control, the T/C (dose: 6.25 mg/kg/injection, schedule: Q03HX024 (oral), vehicle: steroid suspending solution) was 147 % of control and the T/C (dose: 6.25 mg/kg/injection, schedule: Q06HX012 (oral), vehicle: steroid suspending solution) was 135 % of control. For the same molecule, the T/C (dose: 6.3 mg/kg/injection, schedule: Q03HX016 (oral), vehicle: steroid suspending solution) was 146 % of control, the T/C (dose: 8.0 mg/kg/injection, schedule: Q01DX009 (ip), vehicle: saline with Tween-80) was 128 % of control and the T/C (dose: 12.5 mg/kg/injection, schedule: Q01DX009 (ip), vehicle: steroid suspending solution, evaluated on day 33) was 144 % of control. For the same molecule, the T/C (dose: 12.5 mg/kg/injection, schedule: Q01DX009 (ip), vehicle: steroid suspending solution, evaluated on day 60) was 139 % of control, the T/C (dose: 12.5 mg/kg/injection, schedule: Q01DX009 (oral), vehicle: steroid suspending solution) was 137 % of control and the T/C (dose: 12.5 mg/kg/injection, schedule: Q03HX008 (ip), vehicle: steroid suspending solution) was 133 % of control. For the same molecule, the T/C (dose: 12.5 mg/kg/injection, schedule: Q03HX016 (oral), vehicle: steroid suspending solution) was 146 % of control, the T/C (dose: 15.0 mg/kg/injection, schedule: Q01DX009 (ip), vehicle: saline with Tween-80) was 138 % of control and the T/C (dose: 16.0 mg/kg/injection, schedule: Q01DX009 (ip), vehicle: saline with Tween-80) was 125 % of control. For the same molecule, the T/C (dose: 25.0 mg/kg/injection, schedule: Q01DX009 (sc), vehicle: steroid suspending solution) was 132 % of control, the T/C (dose: 25.0 mg/kg/injection, schedule: Q01DX Z (ip), vehicle: steroid suspending solution) was 149 % of control and the survivor count (dose: 25.0 mg/kg/injection, schedule: Q03HX024 (oral), vehicle: steroid suspending solution) was 6 of 8. For the same molecule, the T/C (dose: 30.0 mg/kg/injection, schedule: Q01DX009 (ip), vehicle: saline with Tween-80) was 143 % of control, the T/C (dose: 32.0 mg/kg/injection, schedule: Q04DX003 (oral), vehicle: saline with Tween-80) was 130 % of control and the T/C (dose: 50.0 mg/kg/injection, schedule: Q01DX009 (ip), vehicle: steroid suspending solution) was 133 % of control. The survivor count (dose: 50.0 mg/kg/injection, schedule: Q03HX016 (oral), vehicle: steroid suspending solution) was 8 of 8, the survivor count (dose: 50.0 mg/kg/injection, schedule: Q03HX024 (oral), vehicle: steroid suspending solution) was 8 of 8 and the T/C (dose: 50.0 mg/kg/injection, schedule: Q04DX003 (ip), vehicle: Klucel (hydroxypropylcellulose) (HPC), evaluated on day 5) was 110 and 120 % of control. For the same molecule, the T/C (dose: 50.0 mg/kg/injection, schedule: Q04DX003 (ip), vehicle: Klucel (hydroxypropylcellulose) (HPC), evaluated on day 30) was 110, 112, 113, 114, 120 % of control, the T/C (dose: 50.0 mg/kg/injection, schedule: Q04DX003 (ip), vehicle: Klucel (hydroxypropylcellulose) (HPC), evaluated on day 60) was 107, 115, 116, 120 % of control and the T/C (dose: 50.0 mg/kg/injection, schedule: Q04DX003 (ip), vehicle: saline with Tween-80, evaluated on day 20) was 110 % of control. The T/C (dose: 50.0 mg/kg/injection, schedule: Q04DX003 (ip), vehicle: saline with Tween-80, evaluated on day 30) was 111 % of control, the T/C (dose: 50.0 mg/kg/injection, schedule: Q04DX003 (ip), vehicle: saline with Tween-80, evaluated on day 60) was 112 and 123 % of control and the T/C (dose: 50.0 mg/kg/injection, schedule: Q04DX003 (ip), vehicle: saline, evaluated on day 30) was 95 [5 of 6 alive], 100 [5 of 6 alive], 108, 110 (2×), 116 % of control. The T/C (dose: 50.0 mg/kg/injection, schedule: Q04DX003 (ip), vehicle: saline, evaluated on day 60) was 115 % of control, the T/C (dose: 50.0 mg/kg/injection, schedule: Q04DX003 (ip), vehicle: steroid suspending solution) was 126 % of control and the T/C (dose: 50.0 mg/kg/injection, schedule: Q04DX003 (ip), vehicle: water, evaluated on day 5) was 119 (2×) and 120 % of control. For the same molecule, the T/C (dose: 50.0 mg/kg/injection, schedule: Q04DX003 (ip), vehicle: water, evaluated on day 30) was 116 % of control, the T/C (dose: 50.0 mg/kg/injection, schedule: Q04DX003 (ip), vehicle: water, evaluated on day 60) was 104 and 119 % of control and the T/C (dose: 50.0 mg/kg/injection, schedule: Q04DX003 (oral), vehicle: steroid suspending solution) was 139 % of control. The T/C (dose: 100.0 mg/kg/injection, schedule: Q01DX001 (ip), vehicle: steroid suspending solution, evaluated on day 33) was 127 % of control, the T/C (dose: 100.0 mg/kg/injection, schedule: Q01DX001 (ip), vehicle: steroid suspending solution, evaluated on day 60) was 135 % of control and the T/C (dose: 100.0 mg/kg/injection, schedule: Q01DX009 (ip), vehicle: steroid suspending solution) was 144 % of control. For the same molecule, the T/C (dose: 100.0 mg/kg/injection, schedule: Q01DX009 (sc), vehicle: steroid suspending solution) was 139 % of control, the T/C (dose: 100.0 mg/kg/injection, schedule: Q03HX016 (ip), vehicle: steroid suspending solution) was 127 % of control [6 of 8 alive] and the survivor count (dose: 100.0 mg/kg/injection, schedule: Q03HX016 (oral), vehicle: steroid suspending solution) was 6 of 8. The survivor count (dose: 100.0 mg/kg/injection, schedule: Q03HX024 (ip), vehicle: steroid suspending solution) was 7 of 8, the survivor count (dose: 100.0 mg/kg/injection, schedule: Q03HX024 (oral), vehicle: steroid suspending solution) was 7 of 8 and the T/C (dose: 100.0 mg/kg/injection, schedule: Q04DX003 (ip), vehicle: Klucel (hydroxypropylcellulose) (HPC), evaluated on day 5) was 132, 134, 160 % of control. The T/C (dose: 100.0 mg/kg/injection, schedule: Q04DX003 (ip), vehicle: Klucel (hydroxypropylcellulose) (HPC), evaluated on day 30) was 115, 119 (2×), 120, 124 % of control, the T/C (dose: 100.0 mg/kg/injection, schedule: Q04DX003 (ip), vehicle: Klucel (hydroxypropylcellulose) (HPC), evaluated on day 60) was 128, 130, 132, 141, 160 % of control and the T/C (dose: 100.0 mg/kg/injection, schedule: Q04DX003 (ip), vehicle: saline with Tween-80, evaluated on day 20) was 119 % of control. The T/C (dose: 100.0 mg/kg/injection, schedule: Q04DX003 (ip), vehicle: saline with Tween-80, evaluated on day 30) was 120 % of control, the T/C (dose: 100.0 mg/kg/injection, schedule: Q04DX003 (ip), vehicle: saline with Tween-80, evaluated on day 60) was 110 and 129 % of control and the T/C (dose: 100.0 mg/kg/injection, schedule: Q04DX003 (ip), vehicle: saline, evaluated on day 30) was 97 [5 of 6 alive], 107, 113, 120, 126, 136 % of control. The T/C (dose: 100.0 mg/kg/injection, schedule: Q04DX003 (ip), vehicle: saline, evaluated on day 60) was 231 % of control, the T/C (dose: 100.0 mg/kg/injection, schedule: Q04DX003 (ip), vehicle: steroid suspending solution) was 145 % of control and the T/C (dose: 100.0 mg/kg/injection, schedule: Q04DX003 (ip), vehicle: water, evaluated on day 5) was 108, 122, 168 % of control. For the same molecule, the T/C (dose: 100.0 mg/kg/injection, schedule: Q04DX003 (ip), vehicle: water, evaluated on day 30) was 114 % of control, the T/C (dose: 100.0 mg/kg/injection, schedule: Q04DX003 (ip), vehicle: water, evaluated on day 60) was 165 and 168 % of control and the T/C (dose: 100.0 mg/kg/injection, schedule: Q04DX003 (oral), vehicle: steroid suspending solution) was 147 % of control. The survivor count (dose: 100.0 mg/kg/injection, schedule: Q06HX012 (oral), vehicle: steroid suspending solution) was 8 of 8, the T/C (dose: 128.0 mg/kg/injection, schedule: Q04DX003 (ip), vehicle: saline with Tween-80) was 127 % of control and the T/C (dose: 176.0 mg/kg/injection, schedule: Q01DX001 (ip), vehicle: saline) was 128 % of control. The T/C (dose: 200.0 mg/kg/injection, schedule: Q01DX001 (ip), vehicle: steroid suspending solution) was 148 % of control, the T/C (dose: 200.0 mg/kg/injection, schedule: Q04DX003 (ip), vehicle: Klucel (hydroxypropylcellulose) (HPC), evaluated on day 5) was 168, 223, 227 % of control and the T/C (dose: 200.0 mg/kg/injection, schedule: Q04DX003 (ip), vehicle: Klucel (hydroxypropylcellulose) (HPC), evaluated on day 30) was 117, 124, 129, 141 [5 of 6 alive], 148 % of control. The T/C (dose: 200.0 mg/kg/injection, schedule: Q04DX003 (ip), vehicle: Klucel (hydroxypropylcellulose) (HPC), evaluated on day 60) was 176, 223, 248, 251, 287 % of control.
